Measurements taken from patent US8974801B2, “Long term sustained release pharmaceutical composition containing aqueous suspension of bisphosphonate” (priority 2006, dated 2015).

How the values were obtained:
[1] = rat, in vivo
[2] = in vivo; conditions: female, Sprague-Dawley, rat, im

Net Bone Absorption Rate, % ([1]; female, Sprague-Dawley): 77%
Cmax (maximum daily urine excretion) ([1]; im): 74 µg/day
Cmax for Released Drug (Daily Excretion) ([1]; im): 74
tmax (time when Cmax appears) ([1]; im): 24 h
Tmax [2]: 24 h
Structure (SMILES): NCCCC(O)(P(=O)(O)O)P(=O)(O)O [Alendronate Calcium, alendronate calcium]
